Data as given in article PMC6325694.

The chains behind the UniProt entries cited, without tags or fusion partners.
UniProt Q9U263: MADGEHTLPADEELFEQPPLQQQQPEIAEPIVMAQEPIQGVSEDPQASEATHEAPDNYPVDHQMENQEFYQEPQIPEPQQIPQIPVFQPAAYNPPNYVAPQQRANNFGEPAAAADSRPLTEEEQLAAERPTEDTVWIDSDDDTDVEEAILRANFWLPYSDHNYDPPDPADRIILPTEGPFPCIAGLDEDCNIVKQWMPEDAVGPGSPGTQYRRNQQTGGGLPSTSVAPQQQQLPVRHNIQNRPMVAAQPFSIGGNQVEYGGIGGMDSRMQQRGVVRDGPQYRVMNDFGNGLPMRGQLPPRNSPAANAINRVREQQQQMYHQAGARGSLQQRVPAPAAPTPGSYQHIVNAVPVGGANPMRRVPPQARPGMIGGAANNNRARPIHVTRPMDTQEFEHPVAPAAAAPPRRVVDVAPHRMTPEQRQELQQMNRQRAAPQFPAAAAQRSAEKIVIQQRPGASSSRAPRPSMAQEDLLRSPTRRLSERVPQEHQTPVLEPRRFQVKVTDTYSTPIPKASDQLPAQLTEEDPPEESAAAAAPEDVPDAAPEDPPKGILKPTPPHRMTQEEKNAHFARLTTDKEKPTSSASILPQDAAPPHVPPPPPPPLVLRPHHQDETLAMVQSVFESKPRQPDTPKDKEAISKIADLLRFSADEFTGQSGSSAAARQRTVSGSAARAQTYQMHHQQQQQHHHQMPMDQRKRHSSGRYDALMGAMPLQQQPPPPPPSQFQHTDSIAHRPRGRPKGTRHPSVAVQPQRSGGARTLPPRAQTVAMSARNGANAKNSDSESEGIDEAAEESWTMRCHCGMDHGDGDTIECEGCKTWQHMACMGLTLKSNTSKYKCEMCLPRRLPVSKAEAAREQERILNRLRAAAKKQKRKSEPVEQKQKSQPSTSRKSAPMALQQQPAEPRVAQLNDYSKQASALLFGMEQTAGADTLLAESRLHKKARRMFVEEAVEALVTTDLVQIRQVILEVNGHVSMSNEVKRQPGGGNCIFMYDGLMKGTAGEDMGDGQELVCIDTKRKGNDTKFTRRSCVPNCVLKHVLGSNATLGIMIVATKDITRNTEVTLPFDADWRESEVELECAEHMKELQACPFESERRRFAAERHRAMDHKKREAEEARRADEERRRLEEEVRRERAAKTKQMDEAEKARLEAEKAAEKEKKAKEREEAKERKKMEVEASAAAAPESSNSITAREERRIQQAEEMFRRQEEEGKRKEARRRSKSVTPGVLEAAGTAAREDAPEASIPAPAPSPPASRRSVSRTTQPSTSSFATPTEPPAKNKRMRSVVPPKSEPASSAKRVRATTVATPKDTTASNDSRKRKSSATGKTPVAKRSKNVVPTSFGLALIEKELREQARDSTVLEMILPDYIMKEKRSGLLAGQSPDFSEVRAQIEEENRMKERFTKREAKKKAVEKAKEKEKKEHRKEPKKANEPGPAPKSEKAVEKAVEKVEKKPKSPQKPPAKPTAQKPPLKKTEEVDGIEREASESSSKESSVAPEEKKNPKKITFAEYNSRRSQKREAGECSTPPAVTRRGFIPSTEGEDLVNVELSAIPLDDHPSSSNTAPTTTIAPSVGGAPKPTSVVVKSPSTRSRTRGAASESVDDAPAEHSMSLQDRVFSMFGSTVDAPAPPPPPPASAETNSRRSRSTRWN
UniProt V6CLA2: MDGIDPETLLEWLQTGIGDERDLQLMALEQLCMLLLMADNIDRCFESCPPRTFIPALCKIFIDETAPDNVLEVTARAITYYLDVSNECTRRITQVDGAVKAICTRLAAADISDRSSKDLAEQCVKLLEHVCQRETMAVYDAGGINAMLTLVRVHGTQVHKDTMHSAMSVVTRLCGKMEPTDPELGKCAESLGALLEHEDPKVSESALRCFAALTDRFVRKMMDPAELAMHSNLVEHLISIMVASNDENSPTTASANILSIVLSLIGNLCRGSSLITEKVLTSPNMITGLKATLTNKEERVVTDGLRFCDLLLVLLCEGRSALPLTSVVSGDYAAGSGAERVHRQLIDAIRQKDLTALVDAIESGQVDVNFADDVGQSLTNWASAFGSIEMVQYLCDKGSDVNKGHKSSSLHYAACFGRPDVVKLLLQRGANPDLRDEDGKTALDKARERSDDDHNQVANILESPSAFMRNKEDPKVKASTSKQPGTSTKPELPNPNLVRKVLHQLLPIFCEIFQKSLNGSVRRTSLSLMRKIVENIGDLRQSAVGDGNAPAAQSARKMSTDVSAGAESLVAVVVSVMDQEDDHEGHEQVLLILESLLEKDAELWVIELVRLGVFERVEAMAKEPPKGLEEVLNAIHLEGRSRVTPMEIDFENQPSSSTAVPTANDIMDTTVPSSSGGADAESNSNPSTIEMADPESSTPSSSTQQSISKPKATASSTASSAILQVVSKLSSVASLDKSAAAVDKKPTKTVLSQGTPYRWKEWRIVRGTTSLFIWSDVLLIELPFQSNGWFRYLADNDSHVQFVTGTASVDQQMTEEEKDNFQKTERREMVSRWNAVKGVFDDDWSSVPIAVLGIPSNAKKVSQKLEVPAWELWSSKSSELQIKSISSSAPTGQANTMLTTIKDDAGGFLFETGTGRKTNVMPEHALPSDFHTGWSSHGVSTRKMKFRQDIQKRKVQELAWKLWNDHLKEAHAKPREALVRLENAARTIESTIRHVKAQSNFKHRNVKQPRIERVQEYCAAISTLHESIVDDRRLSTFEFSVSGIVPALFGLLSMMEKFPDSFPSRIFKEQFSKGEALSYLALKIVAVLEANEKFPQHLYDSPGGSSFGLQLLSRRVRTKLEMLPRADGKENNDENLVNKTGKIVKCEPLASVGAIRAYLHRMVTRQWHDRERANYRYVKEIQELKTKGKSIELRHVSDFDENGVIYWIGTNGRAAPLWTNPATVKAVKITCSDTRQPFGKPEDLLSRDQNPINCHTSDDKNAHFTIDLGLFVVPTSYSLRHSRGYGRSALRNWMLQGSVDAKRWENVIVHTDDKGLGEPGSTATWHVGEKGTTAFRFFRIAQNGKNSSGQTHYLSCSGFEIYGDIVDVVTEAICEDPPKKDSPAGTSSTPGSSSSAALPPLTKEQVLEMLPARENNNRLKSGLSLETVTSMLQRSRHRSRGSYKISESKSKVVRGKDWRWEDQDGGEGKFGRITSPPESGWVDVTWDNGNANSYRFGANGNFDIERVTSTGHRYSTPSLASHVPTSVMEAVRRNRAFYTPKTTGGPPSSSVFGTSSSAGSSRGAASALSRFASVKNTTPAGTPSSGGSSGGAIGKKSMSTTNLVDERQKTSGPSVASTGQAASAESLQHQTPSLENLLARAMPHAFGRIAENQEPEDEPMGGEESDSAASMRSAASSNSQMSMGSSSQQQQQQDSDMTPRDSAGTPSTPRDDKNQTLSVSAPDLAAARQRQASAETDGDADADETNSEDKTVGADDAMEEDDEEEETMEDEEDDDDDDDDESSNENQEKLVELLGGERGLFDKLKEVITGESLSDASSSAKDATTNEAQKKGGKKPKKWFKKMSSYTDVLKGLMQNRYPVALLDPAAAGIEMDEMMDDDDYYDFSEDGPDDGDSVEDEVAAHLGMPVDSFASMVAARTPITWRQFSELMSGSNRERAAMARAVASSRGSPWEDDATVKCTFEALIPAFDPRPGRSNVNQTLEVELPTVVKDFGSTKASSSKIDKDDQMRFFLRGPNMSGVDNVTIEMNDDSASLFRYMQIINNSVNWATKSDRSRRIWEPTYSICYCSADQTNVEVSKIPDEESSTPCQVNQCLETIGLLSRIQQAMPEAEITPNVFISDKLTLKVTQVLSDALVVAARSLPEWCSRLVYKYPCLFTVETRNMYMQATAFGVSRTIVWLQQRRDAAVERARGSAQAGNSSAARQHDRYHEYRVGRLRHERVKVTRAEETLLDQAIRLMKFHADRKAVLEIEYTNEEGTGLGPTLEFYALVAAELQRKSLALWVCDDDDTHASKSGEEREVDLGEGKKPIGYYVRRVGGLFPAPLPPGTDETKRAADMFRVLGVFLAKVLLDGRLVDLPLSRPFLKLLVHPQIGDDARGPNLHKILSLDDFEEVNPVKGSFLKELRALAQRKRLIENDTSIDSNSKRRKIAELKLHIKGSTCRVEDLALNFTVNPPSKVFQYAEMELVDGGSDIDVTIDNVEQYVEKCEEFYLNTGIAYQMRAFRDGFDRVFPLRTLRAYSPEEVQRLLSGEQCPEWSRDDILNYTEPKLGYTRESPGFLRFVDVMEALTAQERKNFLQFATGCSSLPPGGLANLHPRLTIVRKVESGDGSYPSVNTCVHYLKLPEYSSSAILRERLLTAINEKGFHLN
UniProt P90916: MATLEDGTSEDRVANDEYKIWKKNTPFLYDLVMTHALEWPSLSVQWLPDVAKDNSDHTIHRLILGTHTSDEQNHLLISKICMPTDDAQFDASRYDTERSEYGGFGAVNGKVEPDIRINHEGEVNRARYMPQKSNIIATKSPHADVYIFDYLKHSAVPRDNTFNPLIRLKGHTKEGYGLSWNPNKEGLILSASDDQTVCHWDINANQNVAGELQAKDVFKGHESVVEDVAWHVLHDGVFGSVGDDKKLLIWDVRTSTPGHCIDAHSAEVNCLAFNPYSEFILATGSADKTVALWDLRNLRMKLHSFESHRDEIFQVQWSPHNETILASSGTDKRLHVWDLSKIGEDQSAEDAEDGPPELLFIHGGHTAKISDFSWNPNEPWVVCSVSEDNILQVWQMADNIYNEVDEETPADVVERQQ
UniProt A5JYW9: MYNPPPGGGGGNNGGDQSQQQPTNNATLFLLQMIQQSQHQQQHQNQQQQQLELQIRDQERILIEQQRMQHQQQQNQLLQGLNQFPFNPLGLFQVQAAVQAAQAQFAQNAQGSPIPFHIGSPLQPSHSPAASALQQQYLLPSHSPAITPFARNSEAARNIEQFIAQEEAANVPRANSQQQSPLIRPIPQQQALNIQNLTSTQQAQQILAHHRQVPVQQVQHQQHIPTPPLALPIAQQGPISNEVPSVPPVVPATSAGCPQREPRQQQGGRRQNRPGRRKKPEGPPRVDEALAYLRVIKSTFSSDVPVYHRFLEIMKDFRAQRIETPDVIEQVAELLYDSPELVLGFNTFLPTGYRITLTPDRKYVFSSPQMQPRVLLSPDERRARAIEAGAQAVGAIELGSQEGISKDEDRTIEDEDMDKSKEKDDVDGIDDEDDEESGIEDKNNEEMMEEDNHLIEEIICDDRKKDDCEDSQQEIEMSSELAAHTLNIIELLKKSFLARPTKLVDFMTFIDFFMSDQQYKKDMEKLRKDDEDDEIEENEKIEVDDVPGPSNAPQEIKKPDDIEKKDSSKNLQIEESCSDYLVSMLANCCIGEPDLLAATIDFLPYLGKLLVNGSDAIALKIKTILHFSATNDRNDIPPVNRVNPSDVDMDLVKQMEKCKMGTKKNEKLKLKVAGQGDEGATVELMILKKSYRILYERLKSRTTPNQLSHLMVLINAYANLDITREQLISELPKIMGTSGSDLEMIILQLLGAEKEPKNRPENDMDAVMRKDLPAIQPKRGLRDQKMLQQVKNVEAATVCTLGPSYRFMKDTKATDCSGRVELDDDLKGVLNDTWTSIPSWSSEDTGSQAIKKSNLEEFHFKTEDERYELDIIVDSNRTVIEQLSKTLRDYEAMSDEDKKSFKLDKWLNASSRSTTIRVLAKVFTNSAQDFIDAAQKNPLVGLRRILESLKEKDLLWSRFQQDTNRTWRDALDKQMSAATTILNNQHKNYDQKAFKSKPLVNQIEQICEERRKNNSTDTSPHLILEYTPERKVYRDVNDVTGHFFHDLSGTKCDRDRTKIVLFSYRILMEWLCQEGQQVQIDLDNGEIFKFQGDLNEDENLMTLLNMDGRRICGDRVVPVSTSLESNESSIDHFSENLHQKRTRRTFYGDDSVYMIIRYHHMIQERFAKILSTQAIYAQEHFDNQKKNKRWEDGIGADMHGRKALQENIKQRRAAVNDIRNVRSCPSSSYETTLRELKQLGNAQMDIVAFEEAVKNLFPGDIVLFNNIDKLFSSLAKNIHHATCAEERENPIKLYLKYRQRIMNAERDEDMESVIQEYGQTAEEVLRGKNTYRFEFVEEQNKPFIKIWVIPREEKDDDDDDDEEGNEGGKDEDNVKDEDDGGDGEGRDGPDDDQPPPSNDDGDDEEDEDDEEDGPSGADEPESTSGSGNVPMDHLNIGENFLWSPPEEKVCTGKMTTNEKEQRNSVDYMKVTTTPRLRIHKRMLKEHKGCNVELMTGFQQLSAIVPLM

T1: MRG-1 (C. elegans (endogenous in L4 worms)) (UniProt A7DTF0)
T1 sequence: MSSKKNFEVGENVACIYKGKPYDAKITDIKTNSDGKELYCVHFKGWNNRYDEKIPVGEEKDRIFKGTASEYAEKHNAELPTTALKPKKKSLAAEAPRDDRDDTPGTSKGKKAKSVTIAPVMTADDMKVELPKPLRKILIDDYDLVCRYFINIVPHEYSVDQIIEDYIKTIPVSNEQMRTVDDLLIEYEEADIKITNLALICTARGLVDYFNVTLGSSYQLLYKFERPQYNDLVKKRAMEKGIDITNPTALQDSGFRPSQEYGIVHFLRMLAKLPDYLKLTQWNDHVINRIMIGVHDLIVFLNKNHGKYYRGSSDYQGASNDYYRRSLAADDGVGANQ

T2: MRG-1::3xHA (C. elegans (endogenous in L4 worms)) (UniProt A7DTF0)
T2 sequence: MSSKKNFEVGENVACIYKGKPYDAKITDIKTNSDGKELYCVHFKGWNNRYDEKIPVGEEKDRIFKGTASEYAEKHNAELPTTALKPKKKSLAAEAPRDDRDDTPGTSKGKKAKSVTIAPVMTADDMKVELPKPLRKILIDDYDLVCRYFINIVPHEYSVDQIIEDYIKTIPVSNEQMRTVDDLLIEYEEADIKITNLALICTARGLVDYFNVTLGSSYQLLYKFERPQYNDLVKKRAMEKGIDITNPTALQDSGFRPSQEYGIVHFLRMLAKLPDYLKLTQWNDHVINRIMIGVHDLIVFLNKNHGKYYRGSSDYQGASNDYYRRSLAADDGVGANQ


What was measured:
[1] = target: T1, MRG-1 (C. elegans (endogenous in L4 worms)); test: affinity purification with mass spectrometry; IP-MS in triplicate from lysates of L4-stage wild-type (N2) worms with anti-MRG-1 (Novus), preimmune serum as control; µMACS ProteinA beads; lysis buffer 20 mM HEPES pH 7.4, 150 mM NaCl, 2 mM MgCl2, 0.1% Tween 20; 4°; label-free quantification
[2] = target: T2, MRG-1::3xHA (C. elegans (endogenous in L4 worms)); test: affinity purification with mass spectrometry; IP-MS in triplicate from lysates of L4-stage mrg-1::3xHA^CRISPR worms with HA antibodies (Roche), N2 lysates (no HA tag) as negative control; µMACS ProteinA beads; lysis buffer 20 mM HEPES pH 7.4, 150 mM NaCl, 2 mM MgCl2, 0.1% Tween 20; 4°; label-free quantification

Molecule | binding [1] | binding [2]
SET-26 (from UniProt Q9U263 1-1645) (enzyme) | binds | binds
ATHP-1 (C. elegans (endogenous in L4 worms)) | binds | binds
OGT-1 (enzyme, UniProt O18158 1-1151) MEKPNYFQSYNKVIGATGEQLAPGAVPPHPVLAPSIAPGGVAGVSAANMANIMQTPGFANLVQQAIRTQLENQAAQQLAVNQQFQLNGATAVQQQLLLTPQQSLAQPIALAPQPTVVLNGVSETLKKVTELAHRQFQSGNYVEAEKYCNLVFQSDPNNLPTLLLLSAINFQTKNLEKSMQYSMLAIKVNNQCAEAYSNLGNYYKEKGQLQDALENYKLAVKLKPEFIDAYINLAAALVSGGDLEQAVTAYFNALQINPDLYCVRSDLGNLLKAMGRLEEAKVCYLKAIETQPQFAVAWSNLGCVFNSQGEIWLAIHHFEKAVTLDPNFLDAYINLGNVLKEARIFDRAVSAYLRALNLSGNHAVVHGNLACVYYEQGLIDLAIDTYKKAIDLQPHFPDAYCNLANALKEKGSVVEAEQMYMKALELCPTHADSQNNLANIKREQGKIEDATRLYLKALEIYPEFAAAHSNLASILQQQGKLNDAILHYKEAIRIAPTFADAYSNMGNTLKEMGDSSAAIACYNRAIQINPAFADAHSNLASIHKDAGNMAEAIQSYSTALKLKPDFPDAYCNLAHCHQIICDWNDYDKRVRKLVQIVEDQLCKKRLPSVHPHHSMLYPLSHAARIAIAAKHASLCFDKVHVQMLGKTPLIHADRFSVQNGQRLRIGYVSSDFGNHPTSHLMQSIPGMHDRSRVEVFCYALSVNDGTNFRSKLMNESEHFVDLSQIPCNGKAAEKIAQDGIHILINMNGYTKGARNEIFALRPAPIQVMWLGYPSTSGATFMDYIITDAVTSPLRLANAFTEKLAYMPHTFFIGDHAQMLRHLTDKVVVKDKETTERDSCLIMNTANMDPILAKSEIKEQVLDTEVVSGPNKELVRAEMVLPVLEVPTEPIKQMIMTGQMTMNVMEDMNVQNGLGQSQMHHKAATGEEIPNSVLLTSRAQYQLPDDAIVFCNFNQLYKIDPSTLDMWIKILENVPKSILWLLRFPYQGEEHIRKYCVERGLDPSRIVFSNVAAKEEHVRRGQLADVCLDTPLCNGHTTGMDILWTGTPMVTMPLESLASRVATSQLYALGVPELVAKTRQEYVSIAVRLGTDADHLANMRAKVWMARTSSTLFDVKQYCHDMEDLLGQMWKRYESGMPIDHITNNTETPHGL | binds | binds
MES-4 (enzyme, UniProt Q9NH52 1-898) MLPSSGDSSKENCAPQDGIVEKEGPNKPFKKKNVKQRNATPQGAGSETSSNAEDKQEEAPILTNAPKDIISMQIQETKAFLSEYEEFVDTDYPKTTFTHVPRKFLSVSPFTPIEADAEGEFLPDADSKCVICHEEKDKTGKSDLITCHGYINGEMDDGKRLLGNIPMFPCRSKFHASCMINYNSGGFHFQYAARLECQARLLCPLHCCNSCNLDHHKQSAYVGDIAECALCLRAFHLTSCYPSGGRDLNVSITIGGKVEKFEMIICPAHYLPGADVQFYNKHKKRKNAVTVVPKADVTMKSHIKACCVIGCEKSSNSKTIMCKTCCRSFHSGCREVETLNGKPIPDDQCESCVCGDPIPQNTLILAKWTDNSFWLALTLDWYKYPTGNRGNINFERLGYTVVQWLIPQENDKEKQPLMSIVPVSDIARLTKNYFSLAKNSTLRNLWEEKYEEQADTALKRCPYVCKTVFGRLRTSVYYKCEPKLEEYHNNEVCNCEGADRCTKLSCQYLADDYECPPSCSKKGVCHNRQVSMGIVSEKIKLAATLCKGYGVFAKGQIEKDEYICEYVGEIIDKAEKKRRLDSVSISRDFQANHYMMELHKGLTVDAARYGNISRYINHSCDPNAASFVTKVFVKKTKEGSLYDTRSYIRAIRTIDDGDEITFSYNMNNEENLPDCECGAENCMGTMGKAKREKPEVADSSEKAAKKNKSSKKKSVKNQNRKSQEAGKNGTASKKSEISPSKPSTSSASSTSFVQQASWPISQNKKNLKKNSNQPVADTGSTLSTSTELNFHEKPQELLSPVSSRSRAASSSTPRAQKSKSRRDDVESEAPPVKRATPSLQTIQETGKAIEFPATKSAITKARALSTQSVPSPHTVEVKVRAISTRGRVQKETKRFEPI | no binding | no binding

Results, then the molecule that gave them:

binding [1] | binding [2] | Molecule
binds | binds | HECD-1 (from UniProt V6CLA2 1-2648)
no binding | no binding | LIN-53 (from UniProt P90916 1-417)
binds | binds | SIN-3 (from UniProt A5JYW9 1-1507)
binds | binds | SUMV2 (protein, UniProt Q22992 1-1145) MKPGRKSLPKKNRASNITEKMPTTSTEAQSSSSKNQDRCRSFSQELGVDDEPEEQQAPVATPKQTKKAQKTAKTTEEVKSPRKSARKSELKKPEPEEKAKEPRKSASKRKSSSLMNKDEPSTSTEAPSADVPGTSEASDEASEIQEAPENPNSALAIKKRLMGGGESSKSAPTKNPPKARKSNVKKPEKEAEALAPPEPPAEPQEAAETPAPEPLVPEKKPKIEDAPTTSSPKKSTPTSAPPTRASARVSKPNRLYADGSFNTEILGRTRITEQNPVKEAQAKESTPELADLPLPAGRRKSTAAPRAPPAPKPIPVINGVLRGYIPSVKVPLAEYEVDGEIINLNEGVNETMDTILAKVCEDGVEKHEDIDPKVVKAKKLAKIDYTKRLKLQVKKLDIQMRIKIPSTPEELGKRKRQAPKTDDFYWSAQSRTKLKGSSKEREETPAFDEESPIGGDEKRQQKARESISHLFDAEMDASIKEAKKYSVSFDKYIKPKITGALKHAKIKLMSRKRQSAEPDDFYYHELLVDQVSPSNSNVENVDVDVDIEETDDKVDPTEFEISEEGVIGIRDEAVDMAEQIALVIPRPTKHDGSPMSMDEIQMRAMEHVESRTKCLDGSLEIVLNQLGHEMAPPTRGVEEQGCQWHTVTSANAQALKNLYTIANNCTEDAITWTHQFMIENLEVHMLASYLSILKYAKRLNSSRFGYVISSTDQLDPEWTQVTSLLKSFVYKRHTEPGTEVLNNTIPYHRMTDTVFLLVPPTLTFGDHQRAPPRHHARIFRWLQSIGHQDSEFISFDEDIDATCSVAEYLSDVIVERICDKVRQKNKYRPNCNVVLVGYGASTYLIHRAANLVEGISAIISIGFPVMTSLGRRGTADDEILLTYCPTLFIVGAEGRRFNNEAITELRTSMISPSGLVVVGHSNDMILVPTSMLLRLGISQTVVFRMVLEKILDFLNLEPVRQQEFADLVPIELNNVFDLDSALLKSDKALSGLAFASSTHSASSSAAPSPVGASGRRATVTGAGSEDIAKRRKESIILSQQIAAPSISGPPPPAPSPRTEDRFLAFQNLVASTITTGDDMPRRASMGASPRVIERGDFRDHRPPPPPPLPILQNPVATPMSQQPPLPSPAPPPPRGPVDPASISLI

Results are given in words; binding and its absence hold for the method and conditions named. Binding seen in cells or lysates may run through a third protein. Here binding means that the protein was enriched with, or labelled near, the bait; the list need not be complete. A no says only that the protein was not detected with the bait.
